We go through 3 substances from patent US6558950 (MCGILL UNIVERSITY, dated 2003).

Amino acid sequences for entries named in this document (tags omitted). A change or cut given only in a name is not applied to a line headed by its entry. Chains listed by the source or under a name are the forms on record and can include a tag or linker.
HA-tagged Bcl-2 (P10415, form named): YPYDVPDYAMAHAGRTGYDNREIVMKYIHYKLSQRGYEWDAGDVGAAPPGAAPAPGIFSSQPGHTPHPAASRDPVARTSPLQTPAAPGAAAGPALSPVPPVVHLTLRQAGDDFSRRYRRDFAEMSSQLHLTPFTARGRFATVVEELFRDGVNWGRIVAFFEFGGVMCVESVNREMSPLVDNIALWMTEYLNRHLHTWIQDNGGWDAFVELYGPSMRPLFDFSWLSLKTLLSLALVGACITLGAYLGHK
HA-tagged pro-FLICE (Q14790, form named): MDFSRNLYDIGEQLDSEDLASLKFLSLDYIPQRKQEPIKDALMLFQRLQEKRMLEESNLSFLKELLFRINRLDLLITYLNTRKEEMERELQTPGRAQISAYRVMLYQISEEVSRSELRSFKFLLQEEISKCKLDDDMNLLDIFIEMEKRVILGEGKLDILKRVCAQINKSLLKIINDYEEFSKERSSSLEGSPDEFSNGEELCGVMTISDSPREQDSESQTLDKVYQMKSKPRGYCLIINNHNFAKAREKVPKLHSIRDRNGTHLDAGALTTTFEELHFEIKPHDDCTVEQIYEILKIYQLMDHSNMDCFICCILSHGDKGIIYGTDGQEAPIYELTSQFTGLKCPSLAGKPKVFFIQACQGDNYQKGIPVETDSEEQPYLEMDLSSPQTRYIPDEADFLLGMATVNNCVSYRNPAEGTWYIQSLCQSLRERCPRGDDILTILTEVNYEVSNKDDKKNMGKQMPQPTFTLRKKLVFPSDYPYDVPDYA
Myc-tagged Bcl-XL (Q07817, form named): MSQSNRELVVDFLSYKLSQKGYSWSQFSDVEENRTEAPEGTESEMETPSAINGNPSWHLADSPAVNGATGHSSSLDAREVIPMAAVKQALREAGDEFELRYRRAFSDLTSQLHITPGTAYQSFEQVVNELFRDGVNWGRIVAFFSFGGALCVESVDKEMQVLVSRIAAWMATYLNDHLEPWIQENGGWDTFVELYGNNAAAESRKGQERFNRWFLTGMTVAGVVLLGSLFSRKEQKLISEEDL

In assay [1] the target is T1, Flag-tagged p28 Bap31 (human) (UniProt P51572).
T1 sequence: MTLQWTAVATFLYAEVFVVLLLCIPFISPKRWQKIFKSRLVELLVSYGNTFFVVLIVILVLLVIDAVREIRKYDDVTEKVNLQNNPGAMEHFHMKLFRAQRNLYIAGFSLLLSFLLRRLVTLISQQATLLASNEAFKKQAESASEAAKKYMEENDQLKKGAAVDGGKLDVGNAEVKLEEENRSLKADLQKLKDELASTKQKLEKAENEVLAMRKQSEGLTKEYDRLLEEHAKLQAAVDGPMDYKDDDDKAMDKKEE
Nature of the assay: anti-Flag co-immunoprecipitation from transfected 293T cells, anti-HA Western blot.

In assay [2] the target is T1, Flag-tagged p28 Bap31 (human). Nature of the assay: anti-Flag co-immunoprecipitation from transfected 293T cells, anti-Myc Western blot.

No constants are given. Whether binding was seen depends on the method and setting. In cells and extracts the contact can be indirect. Some binding calls cover weakened binding; strength is not graded here. Where a sequence is shown, tags or fusion partners need not be part of it.

Regarding “HA-tagged Bcl-2 (from UniProt P10415 1-239)”, in assay [1], the binding entry was “binds”.

As for “HA-tagged pro-FLICE (from UniProt Q14790 1-479) (enzyme)”, the binding result in assay [1] is “binds”. On to “Myc-tagged Bcl-XL (from UniProt Q07817 1-233)”, for which the binding entry in assay [2] is listed as “binds”.
